From the supplement of paper PMC12067093, “Discovery and optimisation of a covalent ligand for TRIM25 and its application to targeted protein ubiquitination” (Chemical Science, 2025)
This is one part of the list.

Protein sequences, listed by entry. Tags and fused reporters are not part of them. Lines headed by an entry give the natural chain unless they say otherwise; changes in a name come on top.
UniProt Q8IYB7: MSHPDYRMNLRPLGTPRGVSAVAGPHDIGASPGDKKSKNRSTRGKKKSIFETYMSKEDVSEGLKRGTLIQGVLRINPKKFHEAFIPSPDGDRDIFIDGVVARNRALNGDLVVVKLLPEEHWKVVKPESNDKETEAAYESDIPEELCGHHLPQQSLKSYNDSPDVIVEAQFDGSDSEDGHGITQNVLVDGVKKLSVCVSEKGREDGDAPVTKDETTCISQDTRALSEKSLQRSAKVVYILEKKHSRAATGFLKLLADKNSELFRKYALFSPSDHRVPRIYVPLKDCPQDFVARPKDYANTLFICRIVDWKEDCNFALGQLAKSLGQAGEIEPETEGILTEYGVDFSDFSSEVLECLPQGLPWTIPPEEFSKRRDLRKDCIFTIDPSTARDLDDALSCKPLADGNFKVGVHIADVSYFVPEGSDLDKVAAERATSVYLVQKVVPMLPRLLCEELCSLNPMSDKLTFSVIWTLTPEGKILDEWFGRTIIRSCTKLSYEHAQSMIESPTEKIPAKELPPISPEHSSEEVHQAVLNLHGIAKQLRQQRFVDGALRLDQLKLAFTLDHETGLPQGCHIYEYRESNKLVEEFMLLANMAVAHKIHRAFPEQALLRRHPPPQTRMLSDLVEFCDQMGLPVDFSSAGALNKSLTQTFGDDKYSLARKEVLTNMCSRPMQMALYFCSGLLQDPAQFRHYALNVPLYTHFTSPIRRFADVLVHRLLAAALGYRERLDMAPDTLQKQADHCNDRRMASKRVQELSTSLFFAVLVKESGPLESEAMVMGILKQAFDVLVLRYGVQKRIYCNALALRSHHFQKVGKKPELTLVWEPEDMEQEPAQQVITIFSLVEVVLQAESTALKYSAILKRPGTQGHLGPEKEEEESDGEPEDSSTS
UniProt Q92620: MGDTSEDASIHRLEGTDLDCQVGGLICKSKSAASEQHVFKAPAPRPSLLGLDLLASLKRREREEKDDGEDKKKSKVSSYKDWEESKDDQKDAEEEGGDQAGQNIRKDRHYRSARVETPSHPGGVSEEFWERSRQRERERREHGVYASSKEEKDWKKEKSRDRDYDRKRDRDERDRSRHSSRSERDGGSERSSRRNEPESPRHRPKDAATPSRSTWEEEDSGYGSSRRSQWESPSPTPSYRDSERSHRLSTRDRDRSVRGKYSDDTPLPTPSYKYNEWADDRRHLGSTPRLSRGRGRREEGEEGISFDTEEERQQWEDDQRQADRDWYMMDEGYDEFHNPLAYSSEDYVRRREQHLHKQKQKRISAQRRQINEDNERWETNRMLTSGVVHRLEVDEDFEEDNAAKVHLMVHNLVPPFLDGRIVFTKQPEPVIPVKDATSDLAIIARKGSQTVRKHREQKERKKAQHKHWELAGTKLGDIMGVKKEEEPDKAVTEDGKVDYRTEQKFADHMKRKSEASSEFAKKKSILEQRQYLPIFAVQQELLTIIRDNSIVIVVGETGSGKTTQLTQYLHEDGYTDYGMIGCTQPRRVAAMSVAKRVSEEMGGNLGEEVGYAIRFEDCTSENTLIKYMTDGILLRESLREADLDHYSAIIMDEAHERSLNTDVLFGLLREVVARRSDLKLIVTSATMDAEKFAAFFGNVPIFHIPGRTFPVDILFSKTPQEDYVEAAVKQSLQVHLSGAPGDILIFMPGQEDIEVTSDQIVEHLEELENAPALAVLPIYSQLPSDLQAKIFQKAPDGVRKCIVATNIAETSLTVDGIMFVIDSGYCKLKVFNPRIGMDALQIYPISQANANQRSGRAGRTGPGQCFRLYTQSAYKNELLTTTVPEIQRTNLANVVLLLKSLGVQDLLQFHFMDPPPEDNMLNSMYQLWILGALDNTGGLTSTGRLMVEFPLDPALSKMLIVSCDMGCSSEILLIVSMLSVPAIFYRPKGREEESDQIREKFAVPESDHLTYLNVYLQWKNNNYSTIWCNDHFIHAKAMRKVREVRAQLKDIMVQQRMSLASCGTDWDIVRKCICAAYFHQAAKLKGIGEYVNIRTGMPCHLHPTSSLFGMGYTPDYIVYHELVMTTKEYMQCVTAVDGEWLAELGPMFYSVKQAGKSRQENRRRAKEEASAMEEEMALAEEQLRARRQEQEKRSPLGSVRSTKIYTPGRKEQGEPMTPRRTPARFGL
UniProt Q9H6R0: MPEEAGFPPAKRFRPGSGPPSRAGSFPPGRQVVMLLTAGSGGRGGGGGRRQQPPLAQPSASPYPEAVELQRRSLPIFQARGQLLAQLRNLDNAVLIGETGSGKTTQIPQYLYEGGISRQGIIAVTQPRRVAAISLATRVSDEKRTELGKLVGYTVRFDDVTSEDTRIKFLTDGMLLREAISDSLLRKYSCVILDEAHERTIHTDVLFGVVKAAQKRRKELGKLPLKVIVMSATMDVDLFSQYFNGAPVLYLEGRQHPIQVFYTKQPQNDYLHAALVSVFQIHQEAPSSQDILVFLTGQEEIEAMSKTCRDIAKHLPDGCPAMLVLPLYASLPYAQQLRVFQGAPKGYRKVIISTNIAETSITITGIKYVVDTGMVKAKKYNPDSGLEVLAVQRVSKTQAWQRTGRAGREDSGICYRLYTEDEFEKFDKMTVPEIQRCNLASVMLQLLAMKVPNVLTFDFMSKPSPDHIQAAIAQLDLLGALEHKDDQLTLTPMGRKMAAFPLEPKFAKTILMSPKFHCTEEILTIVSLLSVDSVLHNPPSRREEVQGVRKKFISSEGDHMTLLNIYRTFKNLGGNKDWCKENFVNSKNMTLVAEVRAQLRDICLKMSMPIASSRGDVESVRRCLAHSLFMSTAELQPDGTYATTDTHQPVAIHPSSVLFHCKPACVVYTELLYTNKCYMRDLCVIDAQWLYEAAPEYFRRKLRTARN
UniProt O60879: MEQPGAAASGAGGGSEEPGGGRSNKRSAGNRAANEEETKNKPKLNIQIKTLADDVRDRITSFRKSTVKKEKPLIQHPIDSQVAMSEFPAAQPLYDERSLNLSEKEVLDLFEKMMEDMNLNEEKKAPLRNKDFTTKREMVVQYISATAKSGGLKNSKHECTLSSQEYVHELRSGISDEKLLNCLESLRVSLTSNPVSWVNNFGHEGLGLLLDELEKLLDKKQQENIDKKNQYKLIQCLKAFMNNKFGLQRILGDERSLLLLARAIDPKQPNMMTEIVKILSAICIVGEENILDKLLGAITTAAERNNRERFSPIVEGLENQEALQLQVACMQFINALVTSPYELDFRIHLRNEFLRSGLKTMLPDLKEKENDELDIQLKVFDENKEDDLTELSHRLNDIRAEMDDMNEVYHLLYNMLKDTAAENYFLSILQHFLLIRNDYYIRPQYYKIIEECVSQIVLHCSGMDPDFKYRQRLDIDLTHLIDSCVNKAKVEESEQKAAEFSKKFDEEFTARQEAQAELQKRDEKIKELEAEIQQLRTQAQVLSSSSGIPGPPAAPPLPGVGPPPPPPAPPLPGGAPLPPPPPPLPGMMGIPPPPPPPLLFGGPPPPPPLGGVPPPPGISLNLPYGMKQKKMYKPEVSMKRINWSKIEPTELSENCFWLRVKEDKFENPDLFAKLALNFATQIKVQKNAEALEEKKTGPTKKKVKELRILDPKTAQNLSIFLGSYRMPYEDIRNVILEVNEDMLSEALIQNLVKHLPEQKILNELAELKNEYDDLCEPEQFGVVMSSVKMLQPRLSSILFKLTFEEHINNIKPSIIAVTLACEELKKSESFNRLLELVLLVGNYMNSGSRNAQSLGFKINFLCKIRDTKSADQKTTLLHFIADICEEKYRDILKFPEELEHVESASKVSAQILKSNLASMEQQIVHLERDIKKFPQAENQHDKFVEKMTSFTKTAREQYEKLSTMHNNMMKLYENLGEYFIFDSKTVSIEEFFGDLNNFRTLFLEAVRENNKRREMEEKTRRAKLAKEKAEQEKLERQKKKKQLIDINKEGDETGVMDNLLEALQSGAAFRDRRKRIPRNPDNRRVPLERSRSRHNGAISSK
UniProt Q14562: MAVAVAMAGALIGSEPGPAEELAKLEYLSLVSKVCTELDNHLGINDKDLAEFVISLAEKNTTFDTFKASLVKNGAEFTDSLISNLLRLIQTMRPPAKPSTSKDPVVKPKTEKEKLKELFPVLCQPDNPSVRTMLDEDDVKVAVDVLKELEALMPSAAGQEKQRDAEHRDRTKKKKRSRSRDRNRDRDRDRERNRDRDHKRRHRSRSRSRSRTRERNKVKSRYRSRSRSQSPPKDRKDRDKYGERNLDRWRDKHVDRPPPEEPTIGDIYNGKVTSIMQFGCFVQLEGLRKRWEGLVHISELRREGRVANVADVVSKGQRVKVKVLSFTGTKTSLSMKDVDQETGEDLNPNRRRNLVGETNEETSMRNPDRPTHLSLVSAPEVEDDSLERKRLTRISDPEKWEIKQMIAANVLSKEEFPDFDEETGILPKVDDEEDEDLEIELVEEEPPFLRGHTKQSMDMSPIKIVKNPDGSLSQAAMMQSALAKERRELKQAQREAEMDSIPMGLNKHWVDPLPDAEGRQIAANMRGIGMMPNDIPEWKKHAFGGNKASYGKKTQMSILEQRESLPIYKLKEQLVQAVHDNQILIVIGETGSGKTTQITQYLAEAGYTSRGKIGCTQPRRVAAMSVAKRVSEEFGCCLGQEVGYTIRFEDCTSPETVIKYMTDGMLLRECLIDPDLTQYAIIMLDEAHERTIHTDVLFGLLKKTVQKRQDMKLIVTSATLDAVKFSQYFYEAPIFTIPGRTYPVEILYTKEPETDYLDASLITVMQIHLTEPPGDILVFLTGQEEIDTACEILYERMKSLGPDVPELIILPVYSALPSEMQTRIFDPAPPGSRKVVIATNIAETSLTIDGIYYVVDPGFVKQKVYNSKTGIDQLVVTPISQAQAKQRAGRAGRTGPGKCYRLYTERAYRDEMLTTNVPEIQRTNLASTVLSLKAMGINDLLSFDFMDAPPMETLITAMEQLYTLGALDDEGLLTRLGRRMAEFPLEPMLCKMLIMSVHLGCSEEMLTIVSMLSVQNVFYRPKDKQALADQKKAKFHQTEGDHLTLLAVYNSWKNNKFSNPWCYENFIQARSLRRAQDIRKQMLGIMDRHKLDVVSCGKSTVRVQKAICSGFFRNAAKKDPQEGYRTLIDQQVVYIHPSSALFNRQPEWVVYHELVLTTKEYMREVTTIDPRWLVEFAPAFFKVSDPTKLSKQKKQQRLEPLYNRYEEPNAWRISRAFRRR
UniProt Q96EY1: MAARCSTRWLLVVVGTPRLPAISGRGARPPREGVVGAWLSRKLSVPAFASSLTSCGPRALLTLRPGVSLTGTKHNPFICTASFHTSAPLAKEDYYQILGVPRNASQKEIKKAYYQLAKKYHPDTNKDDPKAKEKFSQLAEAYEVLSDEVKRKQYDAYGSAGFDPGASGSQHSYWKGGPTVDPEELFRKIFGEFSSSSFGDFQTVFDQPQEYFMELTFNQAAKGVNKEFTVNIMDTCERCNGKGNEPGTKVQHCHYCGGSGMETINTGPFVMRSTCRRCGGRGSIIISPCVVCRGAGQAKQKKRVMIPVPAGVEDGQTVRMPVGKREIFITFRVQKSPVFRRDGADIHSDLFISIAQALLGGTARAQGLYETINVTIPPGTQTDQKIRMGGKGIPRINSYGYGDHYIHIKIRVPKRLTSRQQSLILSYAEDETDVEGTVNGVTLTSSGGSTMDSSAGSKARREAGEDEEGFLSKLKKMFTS
UniProt O00429, whole entry, looked up: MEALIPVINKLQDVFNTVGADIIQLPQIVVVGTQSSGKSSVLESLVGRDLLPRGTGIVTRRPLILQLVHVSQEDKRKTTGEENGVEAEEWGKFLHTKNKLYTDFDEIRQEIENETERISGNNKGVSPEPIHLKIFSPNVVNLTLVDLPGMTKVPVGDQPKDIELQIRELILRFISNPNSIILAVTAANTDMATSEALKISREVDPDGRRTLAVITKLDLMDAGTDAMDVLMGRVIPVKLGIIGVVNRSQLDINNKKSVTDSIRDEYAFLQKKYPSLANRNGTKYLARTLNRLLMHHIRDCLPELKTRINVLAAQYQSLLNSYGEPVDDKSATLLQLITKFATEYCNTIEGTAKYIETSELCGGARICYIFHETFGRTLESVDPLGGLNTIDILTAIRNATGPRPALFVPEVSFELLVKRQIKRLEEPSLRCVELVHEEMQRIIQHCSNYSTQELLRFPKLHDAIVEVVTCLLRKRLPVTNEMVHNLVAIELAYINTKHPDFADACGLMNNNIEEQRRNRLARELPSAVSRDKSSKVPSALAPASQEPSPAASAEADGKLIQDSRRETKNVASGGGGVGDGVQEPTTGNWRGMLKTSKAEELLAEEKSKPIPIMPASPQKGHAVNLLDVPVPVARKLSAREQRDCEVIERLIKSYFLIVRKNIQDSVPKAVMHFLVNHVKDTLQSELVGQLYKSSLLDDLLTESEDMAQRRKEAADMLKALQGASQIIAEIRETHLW

Compound: Cc1cc(ccc1-c1ccccc1)C(=O)N1CCCN(CC1)C(=O)CCl [compound 10]
Assay: probe-labelled cysteine peptide fold change vs DMSO (competition) (log2 fold change); higher = less target engagement (more negative = stronger competition)
Conditions: THP-1, incubation time: 4 h
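Note: competitive profiling in live THP-1 cells: cysteine peptides tagged with an iodoacetamide desthiobiotin (IA-DTB) probe, intensity after compound treatment relative to DMSO-treated cells.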

**Q.** Which “probe-labelled cysteine peptide fold change” value (10 µM) does the source give for “DIS3L2_Q8IYB7_196_LSVCVSEK (UniProt Q8IYB7)” here?
**A.** -0.124

**Q.** And the “probe-labelled cysteine peptide fold change” value (50 µM)?
**A.** 0.0776

**Q.** What does the source list for “DLGAP5_Q15398_381_LPCPLGPLTVWHEEHVLNK (UniProt Q15398)”?
**A.** probe-labelled cysteine peptide fold change (10 µM): -0.0628; probe-labelled cysteine peptide fold change (50 µM): -0.373

**Q.** With “DLD_P09622_477_VLGAHILGPGAGEMVNEAALALEYGASCEDIAR (UniProt P09622)” as the target, how does the “probe-labelled cysteine peptide fold change” value (10 µM) read?
**A.** 0.198

**Q.** And the “probe-labelled cysteine peptide fold change” value (50 µM)?
**A.** 0.0789

**Q.** For “DHX38_Q92620_618_FEDCTSENTLIK (UniProt Q92620)”, which “probe-labelled cysteine peptide fold change” value (10 µM) is on record?
**A.** -0.0951

**Q.** And the “probe-labelled cysteine peptide fold change” value (50 µM)?
**A.** 0.123

**Q.** With “DHX40_Q8IX18_225_LSAFFGNCPIFDIPGR (UniProt Q8IX18)” as the target, how does the “probe-labelled cysteine peptide fold change” value (10 µM) read?
**A.** 0.0073

**Q.** What about the “probe-labelled cysteine peptide fold change” value (50 µM) of the same target?
**A.** 0.294

**Q.** With “DHX29_Q7Z478_1059_KIGACELNEPK (UniProt Q7Z478)” as the target, how does the “probe-labelled cysteine peptide fold change” value (10 µM) read?
**A.** -0.0385

**Q.** What about the “probe-labelled cysteine peptide fold change” value (50 µM) of the same target?
**A.** -0.0929

**Q.** How did the “probe-labelled cysteine peptide fold change” value (10 µM) turn out when “DHX33_Q9H6R0_319_HLPDGCPAMLVLPLYASLPYAQQLR (UniProt Q9H6R0)” was run?
**A.** 0.0557

**Q.** What about the “probe-labelled cysteine peptide fold change” value (50 µM) of the same target?
**A.** 0.0596

**Q.** What does the source list for “DIDO1_Q9BTC0_1079_AYPVSGCFDYLSEDLPDTIHIGGR (UniProt Q9BTC0)”?
**A.** probe-labelled cysteine peptide fold change (10 µM): -0.256; probe-labelled cysteine peptide fold change (50 µM): 0.362

**Q.** Which results are given for “DNAJA4_Q8WW22_138_CEGVGGK (UniProt Q8WW22)”?
**A.** probe-labelled cysteine peptide fold change (10 µM): 0.0156; probe-labelled cysteine peptide fold change (50 µM): -0.271

**Q.** How did the “probe-labelled cysteine peptide fold change” value (10 µM) turn out when “DIAPH2_O60879_862_INFLCK (UniProt O60879)” was run?
**A.** 0.119

**Q.** What about the “probe-labelled cysteine peptide fold change” value (50 µM) of the same target?
**A.** 0.0816

**Q.** Which “probe-labelled cysteine peptide fold change” value (10 µM) does the source give for “DHX8_Q14562_1096_HKLDVVSCGK (UniProt Q14562)” here?
**A.** 0.0253

**Q.** And the “probe-labelled cysteine peptide fold change” value (50 µM)?
**A.** -0.0736

**Q.** “DNAJA3_Q96EY1_256_VQHCHYCGGSGMETINTGPFVMR (UniProt Q96EY1)” was tested. Which “probe-labelled cysteine peptide fold change” value (10 µM) did it give?
**A.** 0.00348

**Q.** What about the “probe-labelled cysteine peptide fold change” value (50 µM) of the same target?
**A.** -0.115

**Q.** Which “probe-labelled cysteine peptide fold change” value (10 µM) does the source give for “DHX8_Q14562_280_VTSIMQFGCFVQLEGLR (UniProt Q14562)” here?
**A.** -0.0405

**Q.** What about the “probe-labelled cysteine peptide fold change” value (50 µM) of the same target?
**A.** 0.214

**Q.** Which “probe-labelled cysteine peptide fold change” value (10 µM) does the source give for “DIDO1_Q9BTC0_455_CGAQAGIK (UniProt Q9BTC0)” here?
**A.** -0.139

**Q.** And the “probe-labelled cysteine peptide fold change” value (50 µM)?
**A.** -0.533

**Q.** Which results are given for “DNAJC10_Q8IXB1_158_EFDAAVNSGELWFVNFYSPGCSHCHDLAPTWR (UniProt Q8IXB1)”?
**A.** probe-labelled cysteine peptide fold change (10 µM): 0.0911; probe-labelled cysteine peptide fold change (50 µM): 0.176

**Q.** “DNAJA1_P31689_153_GAVECCPNCR (UniProt P31689)” was tested. Which “probe-labelled cysteine peptide fold change” value (10 µM) did it give?
**A.** 0.0991

**Q.** And the “probe-labelled cysteine peptide fold change” value (50 µM)?
**A.** -0.0589

**Q.** For “DIAPH2_O60879_484_LDIDLTHLIDSCVNK (UniProt O60879)”, which “probe-labelled cysteine peptide fold change” value (10 µM) is on record?
**A.** 0.0185

**Q.** And the “probe-labelled cysteine peptide fold change” value (50 µM)?
**A.** -0.177

**Q.** For “DNM1L_O00429_470_LHDAIVEVVTCLLR (UniProt O00429)”, which “probe-labelled cysteine peptide fold change” value (10 µM) is on record?
**A.** -0.156

**Q.** What about the “probe-labelled cysteine peptide fold change” value (50 µM) of the same target?
**A.** -0.202

**Q.** “DNM1L_O00429_446_IIQHCSNYSTQELLR (UniProt O00429)” was tested. Which “probe-labelled cysteine peptide fold change” value (10 µM) did it give?
**A.** -0.165

**Q.** What about the “probe-labelled cysteine peptide fold change” value (50 µM) of the same target?
**A.** -0.0631

**Q.** “DIS3L2_Q8IYB7_570_LAFTLDHETGLPQGCHIYEYR (UniProt Q8IYB7)” was tested. Which “probe-labelled cysteine peptide fold change” value (10 µM) did it give?
**A.** 0.0387

**Q.** What about the “probe-labelled cysteine peptide fold change” value (50 µM) of the same target?
**A.** 0.229

**Q.** “DNMT1_P26358_1071_CTVEYGEDLPECVQVYSMGGPNR (UniProt P26358)” was tested. Which “probe-labelled cysteine peptide fold change” value (10 µM) did it give?
**A.** -0.231

**Q.** And the “probe-labelled cysteine peptide fold change” value (50 µM)?
**A.** -0.414

**Q.** For “DHX38_Q92620_27_GDTSEDASIHRLEGTDLDCQVGGLICK (UniProt Q92620)”, which “probe-labelled cysteine peptide fold change” value (10 µM) is on record?
**A.** 0.122

**Q.** And the “probe-labelled cysteine peptide fold change” value (50 µM)?
**A.** -0.362

**Q.** What does the source list for “DNAJA3_Q96EY1_292_GSIIISPCVVCR (UniProt Q96EY1)”?
**A.** probe-labelled cysteine peptide fold change (10 µM): 0.195; probe-labelled cysteine peptide fold change (50 µM): 0.0821

**Q.** For “DHX36_Q9H2U1_977_SRDCAVLSAIIDLIK (UniProt Q9H2U1)”, which “probe-labelled cysteine peptide fold change” value (10 µM) is on record?
**A.** -0.0297

**Q.** And the “probe-labelled cysteine peptide fold change” value (50 µM)?
**A.** -0.167

**Q.** How did the “probe-labelled cysteine peptide fold change” value (10 µM) turn out when “DIAPH3_Q9NSV4_1158_EACNVESNR (UniProt Q9NSV4)” was run?
**A.** -0.103

**Q.** And the “probe-labelled cysteine peptide fold change” value (50 µM)?
**A.** -0.438

**Q.** With “DHX33_Q9H6R0_190_YSCVILDEAHER (UniProt Q9H6R0)” as the target, how does the “probe-labelled cysteine peptide fold change” value (10 µM) read?
**A.** 0.00983

**Q.** What about the “probe-labelled cysteine peptide fold change” value (50 µM) of the same target?
**A.** 0.238

**Q.** With “DNAJA3_Q96EY1_289+292_GSIIISPCVVCR (UniProt Q96EY1)” as the target, how does the “probe-labelled cysteine peptide fold change” value (10 µM) read?
**A.** -0.0622

**Q.** And the “probe-labelled cysteine peptide fold change” value (50 µM)?
**A.** -0.0782

**Q.** How did the “probe-labelled cysteine peptide fold change” value (10 µM) turn out when “DIAPH1_O60610_437_LIEECISQIVLHK (UniProt O60610)” was run?
**A.** 0.25

**Q.** What about the “probe-labelled cysteine peptide fold change” value (50 µM) of the same target?
**A.** 0.0877

**Q.** What does the source list for “DISC1_Q9NRI5_239_EAESHCQSPQEMGAK (UniProt Q9NRI5)”?
**A.** probe-labelled cysteine peptide fold change (10 µM): -0.264; probe-labelled cysteine peptide fold change (50 µM): -0.212

**Q.** What does the source list for “DIS3_Q9Y2L1_549_RIDMVPELLSSNLCSLK (UniProt Q9Y2L1)”?
**A.** probe-labelled cysteine peptide fold change (10 µM): 0.117; probe-labelled cysteine peptide fold change (50 µM): -0.21

**Q.** For “DMTF1_Q9Y222_271_DRCRLMKDTCNTGK (UniProt Q9Y222)”, which “probe-labelled cysteine peptide fold change” value (10 µM) is on record?
**A.** -0.167

**Q.** And the “probe-labelled cysteine peptide fold change” value (50 µM)?
**A.** -0.258

**Q.** Which “probe-labelled cysteine peptide fold change” value (10 µM) does the source give for “DIS3L2_Q8IYB7_146_ETEAAYESDIPEELCGHHLPQQSLK (UniProt Q8IYB7)” here?
**A.** -0.329

**Q.** What about the “probe-labelled cysteine peptide fold change” value (50 µM) of the same target?
**A.** -0.228

**Q.** Which “probe-labelled cysteine peptide fold change” value (10 µM) does the source give for “DIDO1_Q9BTC0_261_PKPECEGYDPNALYCICR (UniProt Q9BTC0)” here?
**A.** -0.286

**Q.** What about the “probe-labelled cysteine peptide fold change” value (50 µM) of the same target?
**A.** -0.361

**Q.** What does the source list for “DMXL1_Q9Y485_458_ELGCDK (UniProt Q9Y485)”?
**A.** probe-labelled cysteine peptide fold change (10 µM): -0.299; probe-labelled cysteine peptide fold change (50 µM): -0.689
